Results deposited as PubChem BioAssay AID1259331 (Drosophila RNAi Screening Center, 2017).

Test: 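Fly transmembrane-protein genes that affect zinc toxicity in cultured cells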 (primary screen)
System: Drosophila S2R+ cells
Reagent: long dsRNA against Drosophila genes
Duration: 5 days (4 days knock-down, then 1 day zinc)
Treatment: zinc chloride at 15 mM final level for 1 day
Detection: 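Luminescent ATP assay standing in for viability; Z score is the mean over three replicate plates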
Reading the numbers: mean Z score: higher = more ATP than other wells, better survival under zinc; ATP luminescence: higher = more ATP, more viable cells
Call rule: 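Hit when the absolute Z score is greater than 1.5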
Calls: active = hit, ATP up or down; inactive = not a hit
The whole screen tested about 3,100 reagents; shown is a random part of them. 126 of them (4.1%) count as active. 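Calls are per reagent; zinc was so toxic that few knock-downs lowered ATP further, so most hits raise ATP.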 Raw values vary from plate to plate and are shown uncorrected. Entries without a mark were called inactive. Names joined by + are all predicted targets of the reagent. Not given: the amount of reagent.

With scb (scab) [DRSC05542], how do the results read?
mean Z score: -0.147; ATP luminescence, replicate 1: 39936; ATP luminescence, replicate 2: 44548

Which result is listed for scb (scab) [DRSC07678]?
mean Z score: 0.0293; ATP luminescence, replicate 1: 69498; ATP luminescence, replicate 2: 67269

For Cnx14D + Cnx99A [DRSC16610], how do the results read?
mean Z score: 0.128; ATP luminescence, replicate 1: 68797; ATP luminescence, replicate 2: 67543

With CG31741 [DRSC02887], how do the results read?
mean Z score: 0.427; ATP luminescence, replicate 1: 56225; ATP luminescence, replicate 2: 40296

What did the screen give for Tsp42Eh (Tetraspanin 42Eh) [DRSC06190]?
mean Z score: 0.231; ATP luminescence, replicate 1: 43665; ATP luminescence, replicate 2: 46537

How did the screen score Tsp42Eh (Tetraspanin 42Eh) [DRSC39852]?
mean Z score: -0.183; ATP luminescence, replicate 1: 53687; ATP luminescence, replicate 2: 53584

For Nmdar2 (NMDA receptor 2) [DRSC18183], what was measured?
mean Z score: -0.0886; ATP luminescence, replicate 1: 37519; ATP luminescence, replicate 2: 45920

Which result is listed for Nmdar2 (NMDA receptor 2) [DRSC18569]?
mean Z score: -0.926; ATP luminescence, replicate 1: 50481; ATP luminescence, replicate 2: 50909

Which result is listed for CG13793 [DRSC02297]?
mean Z score: -0.256; ATP luminescence, replicate 1: 46522; ATP luminescence, replicate 2: 36250

How did the screen score CG13793 [DRSC28252]?
mean Z score: 0.156; ATP luminescence, replicate 1: 63959; ATP luminescence, replicate 2: 63635

For mthl5 (methuselah-like 5) [DRSC16155], what was measured?
mean Z score: -0.478; ATP luminescence, replicate 1: 34947; ATP luminescence, replicate 2: 46520

For mthl5 (methuselah-like 5) [DRSC39532], what was measured?
mean Z score: 0.0165; ATP luminescence, replicate 1: 52879; ATP luminescence, replicate 2: 49503

2 entries already listed, sorted by “mean Z score”, ascending.
Nmdar2 (NMDA receptor 2) [DRSC18569] → mean Z score = -0.926; ATP luminescence, replicate 1 = 50481; ATP luminescence, replicate 2 = 50909
Nmdar2 (NMDA receptor 2) [DRSC18183] → mean Z score = -0.0886; ATP luminescence, replicate 1 = 37519; ATP luminescence, replicate 2 = 45920

Additional entries:
For tinc (tincar) [DRSC14799], what does the deposit list?
mean Z score: -0.47; ATP luminescence, replicate 1: 34982; ATP luminescence, replicate 2: 42302

What is on record for tinc (tincar) [DRSC16308]?
mean Z score: 0.885; ATP luminescence, replicate 1: 36885; ATP luminescence, replicate 2: 72105

For CG9459 [DRSC16496], how do the results read?
mean Z score: -0.712; ATP luminescence, replicate 1: 38582; ATP luminescence, replicate 2: 51269

What did the screen give for CG9459 [DRSC39459]?
mean Z score: -0.0139; ATP luminescence, replicate 1: 56053; ATP luminescence, replicate 2: 47309

What is on record for kumpel (kin of rumpel) [DRSC14883]?
mean Z score: 0.0194; ATP luminescence, replicate 1: 37275; ATP luminescence, replicate 2: 58969

What is on record for kumpel (kin of rumpel) [DRSC16459]?
mean Z score: -0.261; ATP luminescence, replicate 1: 36439; ATP luminescence, replicate 2: 53173

With kumpel (kin of rumpel) [DRSC16460], how do the results read?
mean Z score: 0.0352; ATP luminescence, replicate 1: 37107; ATP luminescence, replicate 2: 58883

What did the screen give for kumpel (kin of rumpel) [DRSC16461]?
mean Z score: 0.0044; ATP luminescence, replicate 1: 36953; ATP luminescence, replicate 2: 59946

With kumpel (kin of rumpel) [DRSC16462], what was measured?
mean Z score: 0.247; ATP luminescence, replicate 1: 38119; ATP luminescence, replicate 2: 59997

Which result is listed for kumpel (kin of rumpel) [DRSC16463]?
mean Z score: -0.366; ATP luminescence, replicate 1: 33576; ATP luminescence, replicate 2: 54004

How did the screen score kumpel (kin of rumpel) [DRSC25593]?
mean Z score: -0.35; ATP luminescence, replicate 1: 47549; ATP luminescence, replicate 2: 55130

How did the screen score kumpel (kin of rumpel) [DRSC27664]?
mean Z score: -0.128; ATP luminescence, replicate 1: 57122; ATP luminescence, replicate 2: 56270

With kumpel (kin of rumpel) [DRSC39430], what does the deposit list?
mean Z score: 0.166; ATP luminescence, replicate 1: 53670; ATP luminescence, replicate 2: 49092

For kumpel (kin of rumpel) [DRSC39876], what does the deposit list?
mean Z score: -0.252; ATP luminescence, replicate 1: 54802; ATP luminescence, replicate 2: 59842
